Measurements reported in PubChem BioAssay AID652243 (Drosophila RNAi Screening Center, 2013).
In all, the deposit lists about 24,000 reagents; this is an unselected part of those that have a named target and a result. Of all reagents, 246 (1%) got an active call. 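Plates not normalised; calls are printed but the firefly/Renilla ratio behind them is not deposited; fold cut for lowering reported inconsistently.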 Raw values are not corrected between plates. A plus sign joins genes that one reagent is predicted to hit. Not stated in the record: the amount of reagent.

Test: 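Fly regulators of androgen-dependent reporter output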 (primary screen)
Cell system: Drosophila S2R+ cells
Reagents: long dsRNA against Drosophila genes
Duration: 72 h (48 h, then 24 h hormone)
Treatment: synthetic androgen R1881 at 10 nM for 24 h
Detection: 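Firefly light from an androgen-responsive reporter and Renilla control light per well, raw and unnormalised, for each of two replicates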
Scale: firefly reporter light: higher = more light from androgen-responsive reporter; Renilla control light: higher = more constitutive control signal (cell number, transfection)
Rule for the call: 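Across duplicate plates, a knock-down whose log firefly/Renilla ratio shifted a set fold down or up from the GFP/LacZ control mean was a hit; the downward cut appears as both 1.5 and 3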
Calls: active = hit: reporter lowered or raised; inactive = no hit

gene | DRSC id | firefly reporter light, replicate 1 | firefly reporter light, replicate 2 | Renilla control light, replicate 1 | Renilla control light, replicate 2 | activity call
CG34181 | DRSC38923 | 7.28e5 | 6.78e5 | 1.57e6 | 1.25e6 | inactive
CG32582 (retired record) | DRSC19114 | 9.72e5 | 6.22e5 | 1.00e6 | 6.40e5 | inactive
CG8043 | DRSC16368 | 3.54e5 | 2.14e5 | 3.97e6 | 2.15e6 | inactive
Ir47a | DRSC06215 | 2.61e5 | 2.10e5 | 1.73e6 | 1.41e6 | inactive
CG14143 | DRSC10146 | 1.94e5 | 1.45e5 | 2.08e6 | 1.48e6 | inactive
CG14143 | DRSC26503 | 5.44e5 | 5.10e5 | 6.79e5 | 4.21e5 | inactive
CG6023 | DRSC19970 | 83270 | 40986 | 6.65e5 | 6.74e5 | inactive
CG14085 | DRSC10089 | 1.99e5 | 1.71e5 | 2.43e6 | 1.60e6 | inactive
sNPF-R | DRSC10836 | 3.04e5 | 2.01e5 | 3.02e6 | 2.61e6 | inactive
CycE | DRSC03295 | 2.93e5 | 1.64e5 | 8.76e5 | 7.39e5 | inactive
CycE | DRSC03296 | 1.58e5 | 1.49e5 | 1.75e6 | 1.70e6 | inactive
CycE | DRSC37016 | – | – | – | – | active
neo | DRSC16316 | 52866 | 26609 | 5.72e5 | 3.52e5 | inactive
neo | DRSC24164 | 6.21e5 | 6.64e5 | 9.64e5 | 9.51e5 | inactive
Mmp2 | DRSC06698 | 4.59e5 | 3.44e5 | 2.85e6 | 2.29e6 | inactive
Mmp2 | DRSC22024 | 6.49e5 | 6.29e5 | 2.27e6 | 1.71e6 | inactive
Mmp2 | DRSC25458 | 3.73e5 | 4.43e5 | 4.67e5 | 5.41e5 | inactive
Lim1 | DRSC17752 | 95012 | 55068 | 7.51e5 | 6.46e5 | inactive
Pde8 | DRSC04503 | 7.13e5 | 8.52e5 | 1.21e6 | 1.84e6 | inactive
Pde8 | DRSC29684 | 6.85e5 | 7.48e5 | 9.09e5 | 1.19e6 | inactive
CG11309 | DRSC11650 | 45506 | 56572 | 3.60e5 | 3.71e5 | inactive
CG11309 | DRSC28126 | 8.88e5 | 9.51e5 | 1.51e6 | 1.45e6 | inactive
CG33477 | DRSC22934 | 4.01e5 | 7.96e5 | 1.14e6 | 1.80e6 | inactive
CG42496 + Ppcdc | DRSC03886 | 1.06e5 | 1.69e5 | 2.66e5 | 2.09e5 | inactive
GstT2 | DRSC06244 | 3.46e5 | 3.15e5 | 2.33e6 | 2.19e6 | inactive
toy | DRSC17222 | 89809 | 60662 | 6.32e5 | 5.00e5 | inactive
toy | DRSC25870 | 4.39e5 | 6.75e5 | 6.78e5 | 7.45e5 | inactive
CG18367 | DRSC06545 | 7.86e5 | 9.02e5 | 2.04e6 | 1.89e6 | inactive
CG18367 | DRSC28507 | 6.56e5 | 1.32e6 | 1.05e6 | 2.17e6 | inactive
tank | DRSC00461 | 65423 | 54650 | 5.38e5 | 4.46e5 | inactive
shams | DRSC16590 | 1.78e5 | 1.55e5 | 1.80e6 | 2.06e6 | inactive
Cpr100A | DRSC14465 | 1.85e5 | 1.66e5 | 1.93e6 | 2.16e6 | inactive
Cpr100A | DRSC28530 | 3.76e5 | 6.71e5 | 1.01e6 | 1.66e6 | inactive
Mppe | DRSC07296 | 8.59e5 | 7.56e5 | 1.51e6 | 1.46e6 | inactive
CG5116 | DRSC15720 | 3.40e5 | 5.37e5 | 3.29e6 | 4.39e6 | inactive
CG6262 | DRSC23105 | 8.74e5 | 8.87e5 | 1.88e6 | 1.97e6 | inactive
CG6262 | DRSC27998 | 5.63e5 | 5.94e5 | 1.40e6 | 1.17e6 | inactive
CG12289 | DRSC09874 | 1.80e5 | 1.53e5 | 2.64e6 | 2.32e6 | inactive
CG12289 | DRSC39299 | – | – | – | – | inactive
CG12289 | DRSC39312 | – | – | – | – | inactive
RpL34a | DRSC15964 | 1.25e5 | 1.29e5 | 1.88e6 | 2.07e6 | inactive
CG32181 | DRSC22635 | 5.31e5 | 5.49e5 | 1.87e6 | 1.81e6 | inactive
CG32181 | DRSC26268 | 3.27e5 | 3.09e5 | 6.64e5 | 5.97e5 | inactive
CG41087 (retired record) | DRSC37850 | 1.34e6 | 1.41e6 | 1.30e6 | 1.49e6 | inactive
Sodh1 | DRSC12605 | 1.33e5 | 1.53e5 | 1.00e6 | 1.54e6 | inactive
Sodh1 | DRSC26280 | 4.03e5 | 4.71e5 | 6.00e5 | 5.53e5 | inactive
CG12535 | DRSC17838 | 4.51e5 | 4.25e5 | 4.82e6 | 4.06e6 | inactive
Ir31a | DRSC22358 | 7.49e5 | 7.69e5 | 2.21e6 | 2.43e6 | inactive
CG6652 | DRSC10686 | 32693 | 51084 | 5.06e5 | 4.67e5 | inactive
CG6652 | DRSC28835 | 6.10e5 | 5.45e5 | 1.55e6 | 1.44e6 | inactive
Pp2A-29B | DRSC03400 | 1.66e5 | 1.72e5 | 2.67e6 | 2.56e6 | inactive
Pp2A-29B | DRSC28394 | 5.14e5 | 7.46e5 | 8.21e5 | 1.15e6 | inactive
Pp2A-29B | DRSC37013 | – | – | – | – | inactive
Rab11 | DRSC16809 | 2.00e5 | 2.42e5 | 2.66e6 | 2.67e6 | inactive
Rab11 | DRSC23620 | 6.31e5 | 3.81e5 | 4.40e5 | 4.51e5 | inactive
CG3793 | DRSC01982 | 1.25e6 | 1.27e6 | 1.47e6 | 2.19e6 | inactive
CG7737 | DRSC07033 | 1.09e6 | 3.48e5 | 1.76e6 | 7.40e5 | inactive
Snx16 | DRSC06984 | 65199 | 87832 | 9.37e5 | 9.37e5 | inactive
